# Results published in the supplement of paper PMC8551327.
# Structures can show the parent of a compound that is named as a salt. Some of the results follow. No stated cut-off is given here; in the data, active = 1.25 or more and inactive = the rest. Repeats are few or missing, and single values can be far off.
# System: Kcc2-LUC knock-in mouse primary cortical neurons (Kcc2 promoter reporter)
# Assay: Kcc2 promoter-driven luciferase activity relative to vehicle control (fold of vehicle (ratio)); higher = stronger Kcc2 promoter activation (Kcc2 expression enhancer)
# Conditions: 100 nM; 48 h
row,SMILES,Kcc2 promoter-driven luciferase activity
1,N#CC1CC(c2ccccc2)Nc2cc(Cl)ccc2N1 (centres undefined),inactive: 0.98
2,CCN(CC)CC(C)(C)C(=O)/C=C/c1ccc(C)cc1,inactive: 1.13
3,N[C@H](C(=O)O)[C@@H]1CC(Cl)=NO1 [Acivicin],inactive: 1.17
4,CC(=O)C1=C(O)C2(O)C(=O)c3c(c(C)c4ccc(C)c(O)c4c3O)CC2C(N)C1=O (centres undefined) [Chelocardin dodecyl sulfate],active: 1.3
5,N#C/C(=C\c1ccc2ccccc2c1)C(=O)c1ccccc1 [2-Naphthylidene benzoylacetonitrile],inactive: 0.7
6,CS(=O)(=O)OCCCCOS(C)(=O)=O [Busulfan],inactive: 1.06
7,CC(=O)N[C@@H](CCC(=O)C=[N+]=[N-])C(=O)O [Duazomycin],inactive: 0.54
8,Cc1ccc(S(=O)(=O)NC(=O)NC2=NC(C)(C)N(c3ccc(Cl)c(Cl)c3)C(N)=N2)cc1,active: 1.39
9,CCN1C=C/C(=C\C=C\c2cc[n+](CC)c3ccccc23)c2ccccc21 [Cryptocyanine],inactive: 0.73
10,"CN1CCN(CCCN2c3ccccc3Sc3ccc(C(F)(F)F)cc32)CC1 [Phenothiazine, disuccinate]",inactive: 0.09
11,CCOC(=O)C1=C(O)CSC1=Nc1ccc(N=C2SCC(O)=C2C(=O)OCC)cc1,inactive: 0.77
12,COc1ccc2c3c([nH]c2c1N)C(C)NCC3 (centres undefined),inactive: 0.92
13,O=c1ccc2ccc(CBr)cc2o1 [7-(Bromomethyl)-2h-chromen-2-one],inactive: 1.16
14,CCCCCCCCCCNCCSSCc1ccc(Cl)cc1,inactive: 0.95
